Source: patent US9750784B2 (Merck Patent GmbH, priority 2013, dated 2017)
Where “and” joins values, the source holds several entries; their conditions need not be identical. Equal values may be shown once. At least one peptide structure holds a part that was inferred or is arguable (an end, a ring closure or a residue). Square brackets hold non-standard residues; d marks the D form. Peptide text beside a SMILES is read from it. * marks the point of attachment. Sta = CC(C)C[C@H](N)[C@@H](O)CC(=O)O; Isovaleryl = CC(C)CC(=O)*

What was measured:
[1] = Fig. 1: Stability data of pepstatin in synovial fluid:
[2] = Pharmacokinetics – residence time of pepstatin in the plasma after intravenous and oral administration Dose-standardised plasma concentrations (C [ng/ml] / dose [mg/ml] and pharmacokinetic parameters of pepstatin after intravenous (iv) and oral (po) administration in male rats.
[3] = as above; remark: listed apart in the source

SMILES: CC(C)CC(=O)N[C@H](C(=O)N[C@H](C(=O)N[C@@H](CC(C)C)[C@@H](O)CC(=O)N[C@@H](C)C(=O)N[C@@H](CC(C)C)[C@@H](O)CC(=O)O)C(C)C)C(C)C [pepstatin] (Isovaleryl-VV[Sta]A[Sta]-OH)
- % remaining [1]: 98.4% and 92.0% and 90.3% and 91.3% and 89.9% and 71.6%
- tmax [2]: 6 min
- Urine [3]: <1 % of dose
